In PMC5974087:
These are yes or no findings as the source states them, for the method shown. Binding seen in cells or lysates may run through a third protein. Some binding calls cover weakened binding; strength is not graded here. Sequences can lack the tags named with a protein.

Protein sequences, listed by entry. Tags and fused reporters are not part of them.
UniProt O75334: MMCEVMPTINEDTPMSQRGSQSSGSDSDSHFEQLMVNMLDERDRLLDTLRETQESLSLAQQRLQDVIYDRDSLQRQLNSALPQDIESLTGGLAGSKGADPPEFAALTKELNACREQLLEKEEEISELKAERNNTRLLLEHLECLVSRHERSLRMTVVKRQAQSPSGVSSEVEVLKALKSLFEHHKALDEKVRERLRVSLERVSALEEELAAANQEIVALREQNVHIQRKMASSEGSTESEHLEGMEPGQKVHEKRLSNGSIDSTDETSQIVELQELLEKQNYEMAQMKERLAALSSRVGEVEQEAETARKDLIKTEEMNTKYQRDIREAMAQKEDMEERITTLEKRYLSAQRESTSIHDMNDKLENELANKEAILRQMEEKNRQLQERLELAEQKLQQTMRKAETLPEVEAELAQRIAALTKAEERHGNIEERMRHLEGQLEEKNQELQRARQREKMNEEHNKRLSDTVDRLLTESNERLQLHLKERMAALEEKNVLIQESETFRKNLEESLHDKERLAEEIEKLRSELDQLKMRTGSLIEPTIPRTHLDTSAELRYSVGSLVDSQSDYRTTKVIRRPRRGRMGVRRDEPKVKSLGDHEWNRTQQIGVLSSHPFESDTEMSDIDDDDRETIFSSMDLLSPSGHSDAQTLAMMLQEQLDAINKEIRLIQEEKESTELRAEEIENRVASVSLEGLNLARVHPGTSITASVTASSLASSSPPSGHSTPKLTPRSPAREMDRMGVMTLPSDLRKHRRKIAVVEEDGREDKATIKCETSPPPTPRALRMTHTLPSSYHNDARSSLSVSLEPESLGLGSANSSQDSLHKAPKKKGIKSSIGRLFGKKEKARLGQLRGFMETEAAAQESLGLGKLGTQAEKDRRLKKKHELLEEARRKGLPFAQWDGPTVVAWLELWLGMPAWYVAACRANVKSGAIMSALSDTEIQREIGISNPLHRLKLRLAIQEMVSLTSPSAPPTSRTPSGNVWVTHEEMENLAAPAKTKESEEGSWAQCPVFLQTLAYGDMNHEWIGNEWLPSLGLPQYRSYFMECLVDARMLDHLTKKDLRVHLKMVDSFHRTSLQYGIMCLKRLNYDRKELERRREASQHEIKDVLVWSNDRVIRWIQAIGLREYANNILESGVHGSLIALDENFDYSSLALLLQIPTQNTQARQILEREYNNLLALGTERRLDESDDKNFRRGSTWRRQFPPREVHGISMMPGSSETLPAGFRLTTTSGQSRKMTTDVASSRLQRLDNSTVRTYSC

What was measured:
[1] = target: T1, DNAAF2, LUMIER fusion (human) (UniProt Q9NVR5); assay: co-IP; LUMIER: RL fusion (prey) and 3xFLAG-FFL fusion (bait) transiently expressed in HEK293, anti-FLAG coated wells, HNTG buffer, 3 h at 4 °C; co-IP efficiency from luciferase activities
T1 sequence: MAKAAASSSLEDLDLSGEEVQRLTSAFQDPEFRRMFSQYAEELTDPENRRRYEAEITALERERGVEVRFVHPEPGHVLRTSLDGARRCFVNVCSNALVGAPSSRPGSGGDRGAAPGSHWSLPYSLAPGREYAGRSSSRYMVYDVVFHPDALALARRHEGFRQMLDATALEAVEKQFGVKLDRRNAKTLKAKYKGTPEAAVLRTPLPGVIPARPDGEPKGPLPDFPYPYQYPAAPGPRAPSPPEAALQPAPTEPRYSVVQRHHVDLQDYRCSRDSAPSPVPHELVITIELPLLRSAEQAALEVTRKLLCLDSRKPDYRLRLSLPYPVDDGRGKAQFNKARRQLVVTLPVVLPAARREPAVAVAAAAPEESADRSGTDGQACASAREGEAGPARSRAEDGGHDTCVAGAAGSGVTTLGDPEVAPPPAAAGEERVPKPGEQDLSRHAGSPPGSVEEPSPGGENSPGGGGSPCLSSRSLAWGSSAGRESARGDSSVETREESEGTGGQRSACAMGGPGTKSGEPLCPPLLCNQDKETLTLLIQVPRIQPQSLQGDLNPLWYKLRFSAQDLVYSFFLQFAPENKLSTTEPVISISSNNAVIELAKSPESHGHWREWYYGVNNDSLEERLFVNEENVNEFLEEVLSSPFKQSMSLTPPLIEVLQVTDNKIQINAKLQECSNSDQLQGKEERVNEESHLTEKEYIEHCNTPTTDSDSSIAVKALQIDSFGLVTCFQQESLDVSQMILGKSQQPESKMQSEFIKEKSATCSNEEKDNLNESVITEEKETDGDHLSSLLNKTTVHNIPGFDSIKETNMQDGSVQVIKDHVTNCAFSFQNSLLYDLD

[2] = target: T2, PIH1D2, LUMIER fusion (human) (UniProt Q8WWB5); assay: as above
T2 sequence: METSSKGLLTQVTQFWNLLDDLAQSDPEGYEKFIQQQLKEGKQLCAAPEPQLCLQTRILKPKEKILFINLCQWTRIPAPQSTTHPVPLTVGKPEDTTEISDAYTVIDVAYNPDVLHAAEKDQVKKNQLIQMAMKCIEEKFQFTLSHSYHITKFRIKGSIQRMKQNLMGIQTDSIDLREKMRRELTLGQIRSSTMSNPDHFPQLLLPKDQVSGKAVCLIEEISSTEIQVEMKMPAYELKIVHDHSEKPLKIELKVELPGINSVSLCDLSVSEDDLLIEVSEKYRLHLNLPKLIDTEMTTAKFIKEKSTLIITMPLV

[3] = target: T3, SPAG1, LUMIER fusion (human) (UniProt Q07617); assay: as above
T3 sequence: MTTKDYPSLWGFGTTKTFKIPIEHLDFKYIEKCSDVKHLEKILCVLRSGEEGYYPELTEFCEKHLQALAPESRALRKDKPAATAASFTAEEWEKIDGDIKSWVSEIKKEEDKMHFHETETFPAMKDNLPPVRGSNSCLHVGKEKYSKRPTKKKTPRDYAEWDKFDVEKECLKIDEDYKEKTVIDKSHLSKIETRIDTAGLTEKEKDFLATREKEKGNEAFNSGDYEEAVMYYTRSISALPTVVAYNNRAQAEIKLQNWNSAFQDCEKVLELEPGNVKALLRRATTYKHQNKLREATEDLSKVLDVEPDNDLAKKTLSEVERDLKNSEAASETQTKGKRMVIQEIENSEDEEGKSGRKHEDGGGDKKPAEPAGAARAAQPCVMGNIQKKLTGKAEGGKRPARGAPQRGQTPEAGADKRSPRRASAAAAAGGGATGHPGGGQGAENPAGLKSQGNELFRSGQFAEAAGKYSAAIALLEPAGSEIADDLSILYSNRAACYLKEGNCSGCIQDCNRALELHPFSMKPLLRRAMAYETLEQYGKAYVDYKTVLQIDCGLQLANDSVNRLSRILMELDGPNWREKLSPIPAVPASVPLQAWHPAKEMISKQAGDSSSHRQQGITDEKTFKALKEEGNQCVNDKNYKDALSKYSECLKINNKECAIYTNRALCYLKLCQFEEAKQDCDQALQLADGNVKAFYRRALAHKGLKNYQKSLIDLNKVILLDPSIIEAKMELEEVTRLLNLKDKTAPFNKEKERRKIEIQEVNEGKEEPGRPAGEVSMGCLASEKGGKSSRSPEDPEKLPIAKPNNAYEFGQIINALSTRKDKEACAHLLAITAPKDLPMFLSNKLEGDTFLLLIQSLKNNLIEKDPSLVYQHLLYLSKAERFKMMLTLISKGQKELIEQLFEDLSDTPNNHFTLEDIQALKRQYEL

[4] = target: FLAG-FFL-liprin-α2 (human) (UniProt O75334); assay: co-IP; LUMIER in HeLa and HeLa-PIH1D2 cells: FLAG-FFL-liprin-α2 bait, RL-tagged partners as prey

B1: DYX1C1-iso-a, LUMIER fusion (protein, UniProt Q8WXU2 1-420)
chain: MPLQVSDYSWQQTKTAVFLSLPLKGVCVRDTDVFCTENYLKVNFPPFLFEAFLYAPIDDESSKAKIGNDTIVFTLYKKEAAMWETLSVTGVDKEMMQRIREKSILQAQERAKEATEAKAAAKREDQKYALSVMMKIEEEERKKIEDMKENERIKATKALEAWKEYQRKAEEQKKIQREEKLCQKEKQIKEERKKIKYKSLTRNLASRNLAPKGRNSENIFTEKLKEDSIPAPRSVGSIKINFTPRVFPTALRESQVAEEEEWLHKQAEARRAMNTDIAELCDLKEEEKNPEWLKDKGNKLFATENYLAAINAYNLAIRLNNKMPLLYLNRAACHLKLKNLHKAIEDSSKALELLMPPVTDNANARMKAHVRRGTAFCQLELYVEGLQDYEAALKIDPSNKIVQIDAEKIRNVIQGTELKS
binding [1]: binds

B2: SPAG1, LUMIER fusion (protein, UniProt Q07617 1-926)
chain: MTTKDYPSLWGFGTTKTFKIPIEHLDFKYIEKCSDVKHLEKILCVLRSGEEGYYPELTEFCEKHLQALAPESRALRKDKPAATAASFTAEEWEKIDGDIKSWVSEIKKEEDKMHFHETETFPAMKDNLPPVRGSNSCLHVGKEKYSKRPTKKKTPRDYAEWDKFDVEKECLKIDEDYKEKTVIDKSHLSKIETRIDTAGLTEKEKDFLATREKEKGNEAFNSGDYEEAVMYYTRSISALPTVVAYNNRAQAEIKLQNWNSAFQDCEKVLELEPGNVKALLRRATTYKHQNKLREATEDLSKVLDVEPDNDLAKKTLSEVERDLKNSEAASETQTKGKRMVIQEIENSEDEEGKSGRKHEDGGGDKKPAEPAGAARAAQPCVMGNIQKKLTGKAEGGKRPARGAPQRGQTPEAGADKRSPRRASAAAAAGGGATGHPGGGQGAENPAGLKSQGNELFRSGQFAEAAGKYSAAIALLEPAGSEIADDLSILYSNRAACYLKEGNCSGCIQDCNRALELHPFSMKPLLRRAMAYETLEQYGKAYVDYKTVLQIDCGLQLANDSVNRLSRILMELDGPNWREKLSPIPAVPASVPLQAWHPAKEMISKQAGDSSSHRQQGITDEKTFKALKEEGNQCVNDKNYKDALSKYSECLKINNKECAIYTNRALCYLKLCQFEEAKQDCDQALQLADGNVKAFYRRALAHKGLKNYQKSLIDLNKVILLDPSIIEAKMELEEVTRLLNLKDKTAPFNKEKERRKIEIQEVNEGKEEPGRPAGEVSMGCLASEKGGKSSRSPEDPEKLPIAKPNNAYEFGQIINALSTRKDKEACAHLLAITAPKDLPMFLSNKLEGDTFLLLIQSLKNNLIEKDPSLVYQHLLYLSKAERFKMMLTLISKGQKELIEQLFEDLSDTPNNHFTLEDIQALKRQYEL
binding [2]: binds

B3: liprin-β2 (PPFIBP2), LUMIER fusion (protein, UniProt Q8ND30 1-876)
chain: MASDASHALEAALEQMDGIIAGTKTGADLSDGTCEPGLASPASYMNPFPVLHLIEDLRLALEMLELPQERAALLSQIPGPTAAYIKEWFEESLSQVNHHSAASNETYQERLARLEGDKESLILQVSVLTDQVEAQGEKIRDLEVCLEGHQVKLNAAEEMLQQELLSRTSLETQKLDLMTEVSELKLKLVGMEKEQREQEEKQRKAEELLQELRHLKIKVEELENERNQYEWKLKATKAEVAQLQEQVALKDAEIERLHSQLSRTAALHSESHTERDQEIQRLKMGMETLLLANEDKDRRIEELTGLLNQYRKVKEIVMVTQGPSERTLSINEEEPEGGFSKWNATNKDPEELFKQEMPPRCSSPTVGPPPLPQKSLETRAQKKLSCSLEDLRSESVDKCMDGNQPFPVLEPKDSPFLAEHKYPTLPGKLSGATPNGEAAKSPPTICQPDATGSSLLRLRDTESGWDDTAVVNDLSSTSSGTESGPQSPLTPDGKRNPKGIKKFWGKIRRTQSGNFYTDTLGMAEFRRGGLRATAGPRLSRTRDSKGQKSDANAPFAQWSTERVCAWLEDFGLAQYVIFARQWVSSGHTLLTATPQDMEKELGIKHPLHRKKLVLAVKAINTKQEEKSALLDHIWVTRWLDDIGLPQYKDQFHESRVDRRMLQYLTVNDLLFLKVTSQLHHLSIKCAIHVLHVNKFNPHCLHRRPADESNLSPSEVVQWSNHRVMEWLRSVDLAEYAPNLRGSGVHGGLIILEPRFTGDTLAMLLNIPPQKTLLRRHLTTKFNALIGPEAEQEKREKMASPAYTPLTTTAKVRPRKLGFSHFGNIRKKKFDESTDYICPMEPSDGVSDSHRVYSGYRGLSPLDAPELDGLDQVGQIS
binding [3]: binds | binding [4]: binds
